The text below walks through data of publication PMC3528735.

Sequences of proteins named here, by UniProt entry; tags and fusion partners are left off. A change or cut given only in a name is not applied to a line headed by its entry. A line that says so, or that is headed by a name, gives the form on record, which may keep a tag or linker. Residues count along the entry.
mouse PAC1 (Normal/Hop) isoform, intact PAC1 (P70205, residues 21-496): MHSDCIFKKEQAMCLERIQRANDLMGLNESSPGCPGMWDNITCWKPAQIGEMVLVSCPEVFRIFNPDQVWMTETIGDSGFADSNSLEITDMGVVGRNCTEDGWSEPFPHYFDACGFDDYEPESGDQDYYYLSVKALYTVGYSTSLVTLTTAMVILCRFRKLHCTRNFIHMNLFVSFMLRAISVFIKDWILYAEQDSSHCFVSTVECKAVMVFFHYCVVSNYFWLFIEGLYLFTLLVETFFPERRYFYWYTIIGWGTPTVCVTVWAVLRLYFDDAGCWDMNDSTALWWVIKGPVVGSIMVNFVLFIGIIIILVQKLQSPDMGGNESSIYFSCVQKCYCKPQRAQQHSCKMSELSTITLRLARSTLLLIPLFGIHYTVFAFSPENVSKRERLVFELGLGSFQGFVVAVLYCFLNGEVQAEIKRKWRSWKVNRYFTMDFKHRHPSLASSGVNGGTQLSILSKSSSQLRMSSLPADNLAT
D-PAC1, mutant PAC1 with the deletion of the HSDCIF motif (P70205, form named): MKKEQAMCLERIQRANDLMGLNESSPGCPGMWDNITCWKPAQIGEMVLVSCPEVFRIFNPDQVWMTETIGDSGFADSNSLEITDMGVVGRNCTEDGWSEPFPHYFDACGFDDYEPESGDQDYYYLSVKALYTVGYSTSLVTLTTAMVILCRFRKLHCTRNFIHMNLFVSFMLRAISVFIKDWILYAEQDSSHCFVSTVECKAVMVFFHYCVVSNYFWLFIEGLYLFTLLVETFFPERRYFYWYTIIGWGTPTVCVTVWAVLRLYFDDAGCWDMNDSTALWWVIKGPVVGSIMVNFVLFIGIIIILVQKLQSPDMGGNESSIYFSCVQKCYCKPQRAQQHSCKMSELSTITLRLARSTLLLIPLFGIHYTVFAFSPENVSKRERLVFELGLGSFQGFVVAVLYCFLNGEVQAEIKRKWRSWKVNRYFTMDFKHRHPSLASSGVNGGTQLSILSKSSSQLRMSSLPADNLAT
M-PAC1, mutant PAC1 with the replacement of Cys in the HSDCIF motif with Ala (P70205, form named): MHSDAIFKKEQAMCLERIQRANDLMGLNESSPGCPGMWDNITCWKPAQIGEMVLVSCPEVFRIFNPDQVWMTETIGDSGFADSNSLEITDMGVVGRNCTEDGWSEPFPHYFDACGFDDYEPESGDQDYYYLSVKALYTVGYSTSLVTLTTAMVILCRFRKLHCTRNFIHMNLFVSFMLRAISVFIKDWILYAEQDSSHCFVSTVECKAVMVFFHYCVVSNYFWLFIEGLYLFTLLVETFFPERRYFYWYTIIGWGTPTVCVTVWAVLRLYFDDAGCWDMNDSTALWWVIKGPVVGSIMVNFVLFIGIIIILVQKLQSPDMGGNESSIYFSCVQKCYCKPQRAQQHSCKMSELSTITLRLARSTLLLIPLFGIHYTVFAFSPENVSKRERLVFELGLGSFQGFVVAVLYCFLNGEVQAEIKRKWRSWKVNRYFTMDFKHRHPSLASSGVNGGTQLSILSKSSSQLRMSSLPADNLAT

Experiment [1] addresses D-PAC1, mutant PAC1 with the deletion of the HSDCIF motif (mouse) (UniProt P70205). Description: FRET or BRET; static BRET in CHO cells, Rlu-tagged and YFP-tagged receptor constructs, 1.0 ug DNA/5x10^5 cells divided equally, coelenterazine h 5 uM, 48 h after transfection; some samples incubated with 100 nmol/L HSDCIF for 2 h at 4°C before reading.
The target in experiment [2] is mouse PAC1 (Normal/Hop) isoform, intact PAC1 (mouse) (UniProt P70205). Described as above.
In experiment [3] the target is D-PAC1, mutant PAC1 with the deletion of the HSDCIF motif (mouse) (UniProt P70205). In words: split reporter; CHO cells co-transfected with equal amounts of Y/N- and Y/C-tagged receptor constructs, read 48 h later by fluorescence microscopy and in a plate counter (ex 480, em 535 nm); some samples incubated with 100 nmol/L HSDCIF for 2 h at 4°C before reading.
Experiment [4] concerns the target mouse PAC1 (Normal/Hop) isoform, intact PAC1 (mouse) (UniProt P70205). The description is as above.
In experiment [5] the target is D-PAC1, mutant PAC1 with the deletion of the HSDCIF motif (mouse) (UniProt P70205). Description: non-reducing SDS-PAGE and western blot; cell membrane samples and cell lysates of CHO cells expressing YFP-tagged receptor, loading buffer without reducing agent, boiled, blot with anti-PAC1 antibody; dimer band about 160 kD; one sample from cells incubated with 100 nmol/L HSDCIF for 2 h at 4°C.

Experiment [6] shares this target. In words: FRET or BRET; saturation BRET in CHO cells, constant Rlu-tagged donor (1.0 ug DNA/5x10^5 cells) and increasing YFP-tagged acceptor (0.3 to 6.0 ug); some samples incubated with 100 nmol/L HSDCIF for 2 h at 4°C before reading.
In experiment [7] the target is mouse PAC1 (Normal/Hop) isoform, intact PAC1 (mouse) (UniProt P70205). Described as above.
The target of experiment [8] is M-PAC1, mutant PAC1 with the replacement of Cys in the HSDCIF motif with Ala (mouse) (UniProt P70205). Description: FRET or BRET; static BRET in CHO cells, Rlu-tagged and YFP-tagged receptor constructs, 1.0 ug DNA/5x10^5 cells divided equally, coelenterazine h 5 uM, 48 h after transfection; some samples incubated with 100 nmol/L HSDCIF for 2 h at 4°C before reading.
Experiment [9] shares this target. In words: split reporter; CHO cells co-transfected with equal amounts of Y/N- and Y/C-tagged receptor constructs, read 48 h later by fluorescence microscopy and in a plate counter (ex 480, em 535 nm); some samples incubated with 100 nmol/L HSDCIF for 2 h at 4°C before reading.
Experiment [10] shares this target. In words: non-reducing SDS-PAGE and western blot; cell membrane samples and cell lysates of CHO cells expressing YFP-tagged receptor, loading buffer without reducing agent, boiled, blot with anti-PAC1 antibody; dimer band about 160 kD; one sample from cells incubated with 100 nmol/L HSDCIF for 2 h at 4°C.
Experiment [11] has the same target. In words: FRET or BRET; saturation BRET in CHO cells, constant Rlu-tagged donor (1.0 ug DNA/5x10^5 cells) and increasing YFP-tagged acceptor (0.3 to 6.0 ug); some samples incubated with 100 nmol/L HSDCIF for 2 h at 4°C before reading.
For experiment [12], the target named is mouse PAC1 (Normal/Hop) isoform, intact PAC1 (mouse) (UniProt P70205). In words: non-reducing SDS-PAGE and western blot; cell membrane samples and cell lysates of CHO cells expressing YFP-tagged receptor, loading buffer without reducing agent, boiled, blot with anti-PAC1 antibody; dimer band about 160 kD; one sample from cells incubated with 100 nmol/L HSDCIF for 2 h at 4°C.

No constants are given. Whether binding was seen depends on the method and setting. For part of these data: Binding seen in cells or lysates may run through a third protein. Some entries that bind do so weakly or less than the wild type.

Turning to “D-PAC1, mutant PAC1 with the deletion of the HSDCIF motif (from UniProt P70205 21-496) (receptor)”, the binding result in [1], in experiment [2], in experiment [3], in experiment [4], in experiment [5] and in experiment [6] was “no binding” in each case. In [7], the binding entry is given as “no binding”.
Turning to “M-PAC1, mutant PAC1 with the replacement of Cys in the HSDCIF motif with Ala (from UniProt P70205 21-496) (receptor)”, the binding result in experiment [8], in experiment [2], in experiment [9], in [4], in experiment [10] and in experiment [11] was “no binding” in each case. Also, the binding result in [7] is given as “no binding”.
Turning to “mouse PAC1 (Normal/Hop) isoform, intact PAC1 (from UniProt P70205 21-496) (receptor)”, the binding entry in experiment [2], in experiment [4], in experiment [12] and in [7] was “binds” each time.
